Data as given in the supplement of paper PMC3334620.
Whole data set: some 33,000 sequences, median “E-score (-0.5 to 0.5)” near -0.016, cut for the highest 2% near 0.3. The list shows a part of the results.

molecular target: T1, Yer184c (UniProt P39961); test: PBM E-score (8-mer binding enrichment) (E-score (-0.5 to 0.5)); higher = stronger / more preferred TF binding; conditions: protein concentration: 100 nM; construct: GST-full length
T1 sequence: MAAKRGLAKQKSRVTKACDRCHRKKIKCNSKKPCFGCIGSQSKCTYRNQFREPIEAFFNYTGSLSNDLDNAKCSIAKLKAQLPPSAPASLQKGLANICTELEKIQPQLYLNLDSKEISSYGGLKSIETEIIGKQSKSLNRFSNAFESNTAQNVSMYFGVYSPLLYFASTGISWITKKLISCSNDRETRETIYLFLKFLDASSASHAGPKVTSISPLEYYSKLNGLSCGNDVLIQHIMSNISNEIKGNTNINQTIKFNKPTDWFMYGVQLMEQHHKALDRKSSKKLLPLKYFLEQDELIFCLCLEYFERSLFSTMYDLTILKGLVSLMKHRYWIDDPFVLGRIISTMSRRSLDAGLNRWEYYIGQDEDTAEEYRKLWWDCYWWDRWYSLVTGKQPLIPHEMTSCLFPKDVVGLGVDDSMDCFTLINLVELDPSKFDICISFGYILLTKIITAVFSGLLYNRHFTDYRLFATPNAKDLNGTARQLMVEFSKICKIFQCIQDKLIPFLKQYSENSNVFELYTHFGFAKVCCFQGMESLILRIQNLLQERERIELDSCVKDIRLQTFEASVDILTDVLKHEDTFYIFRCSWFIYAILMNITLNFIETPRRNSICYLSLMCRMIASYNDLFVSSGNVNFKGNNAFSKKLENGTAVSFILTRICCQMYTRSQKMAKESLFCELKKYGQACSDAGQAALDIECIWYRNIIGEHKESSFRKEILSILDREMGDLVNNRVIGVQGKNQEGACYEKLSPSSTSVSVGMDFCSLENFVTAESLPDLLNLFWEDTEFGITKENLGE
In short: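 Masliner-normalised scans of fluorescent anti-GST signal were the basis for scoring. That signal came from GST-tagged yeast transcription factors applied at about 100-200 nM to double-stranded universal all-10-mer Agilent arrays on fresh or once-stripped slides. Each ungapped eight-base word, pooled with its reverse complement, received an E-score from the Universal PBM Analysis Suite.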

Sequence | PBM E-score
CGGGGTGC | 0.0137
CCTGCTTA | -0.0649
GAAGAAGA | 0.165
CTGCTGTA | 0.0812
GAGATGTA | 0.0908
AAACTGCT | -0.116
GTGACTCA | -0.182
GCAGTCAC | -0.186
ACCACCTG | -0.116
CAAACCGC | 0.0411
ACGCGCAA | 0.156
AATTGTTG | -0.0931
CACTCATA | 0.0205
CGATGCCA | -0.15
ACAGATTG | -0.133
GATAAAGA | -0.0721
AAGGGCTC | -0.307
AGCATTTG | -0.07
AAAGAAGG | -0.0521
AGTACAGG | 0.015
GCGAAAGC | -0.056
ATAATGTC | 0.0688
CCGTAACA | 0.148
CGGCTGGC | 0.151
ACTTCCAA | -0.0697

6 records picked at random from the list so far:
Sequence | PBM E-score
CCTGCTTA | -0.0649
AGTACAGG | 0.015
CGATGCCA | -0.15
GAGATGTA | 0.0908
ACGCGCAA | 0.156
AAAGAAGG | -0.0521

Following part:

Sequence | PBM E-score
ATGCACAT | -0.0925
ACACGACG | -0.0478
ATTTGTCA | 0.1
ATGTAAGA | 0.152
ACTAGAAT | -0.127
AACTATGT | -0.00664
AATCAAGT | -0.0331
CCGGGGAG | 0.0832
ACCAGGGA | -0.3
GTAGGCAC | -0.196
CTACACAG | -0.185
ACTTTCGG | 0.16
AACGATTC | 0.106
CAAGTCGG | 0.0537
AATTTGGA | -0.0799
ACCCTTCG | -0.123
ACTTCAAA | 0.0515
CAAAGTAA | 0.0677
ACCAATGC | -0.0435
CCATCCGG | 0.143
AGAATTGG | -0.012
CGATATAA | 0.0483
ACCGAGTG | -0.068
CGCGGTAC | 0.139
TACATCCA | 0.0241

Sequence | PBM E-score
TCATAAGA | 0.1
CCTGGGCC | -0.131
AGGCTGCG | -0.155
TAATTTCA | 0.244
CCAGTAAA | -0.0809
AGTATTCA | 0.00042
TCATCCCA | -0.181
GACTCTAA | -0.104
CCGGATAG | 0.342
ACCAAAAG | 0.115
AATGCAGC | -0.26
GGGGCATA | -0.238
CGAAAAAG | 0.17
ACGCCCGA | 0.056
ACTTCCCA | -0.0981
GCATCAAC | 0.0173
AAAATTTA | 0.228
CCTGTAAG | -0.186
CGACCGGA | 0.253
GTGGAAGA | 0.131
TATTGAGA | 0.0985
ACCGGCGG | 0.182
CCTTTAAG | 0.00753
CTAGGTGC | -0.232
ACAGAGAA | 0.0725

Sequence | PBM E-score
CGGCCGAC | 0.381
ACTGGCGG | -0.0142
GTAAGTCA | -0.116
GAATTGGA | -0.0106
CGTTGCCC | -0.166
CCCCTAAG | -0.302
CACGTAGC | -0.25
CATGAACC | 0.0505
TGACTCCA | -0.254
TTAATAAA | 0.328
CTAGGAGA | -0.0687
CACGTTCG | -0.203
AACCGCGT | 0.168
ATACAAAC | 0.221
GTACTTAA | -0.13
ATAGGCCG | 0.0354
CACAGGTC | -0.235
AGCCTGCC | -0.118
AACGAACA | 0.254
GGCGCCGA | 0.337
CAACGTCA | -0.0999
TCCAAAAA | 0.103
GAGACCGA | 0.152
GTAATGGA | 0.181
GACCATGC | -0.0135

Sequence | PBM E-score
AAGACTTC | -0.188
CCGATACG | 0.00831
ACTCCTGG | -0.289
CCGTCAGG | -0.0428
AGTGGTGC | -0.07
AGGTGAGC | -0.195
ACCCCCTG | -0.357
GCCTGACC | -0.101
GCCTAGGC | -0.197
ACGTCTAG | 0.0664
CCTGGCTC | -0.0961
AGTGACCG | -0.011
ACTCACGG | 0.141
CAGTAAGA | 0.0505
ACCGTGGA | -0.0641
CCGACGAA | 0.261
CGCGTGGA | -0.165
CGTGGCAG | -0.0489
GTTAGGGA | -0.114
ATGACGAC | -0.0244
GTCAACCA | -0.122
ACTAAACA | -0.0326
CGTCATTA | -0.0467
CGTTTATC | 0.15
ATCATCCC | 0.0551

Sequence | PBM E-score
AACCAACA | 0.138
ATAGTGGG | -0.0876
ACCACGCG | -0.0749
GCTGCCCC | -0.231
AGGCATGG | -0.0826
ACCCATAA | -0.0176
CAGTTAAC | 0.156
GCCCCCTA | -0.259
AGATCGAG | 0.0688
CACGCTAA | 0.0554
CGCCCGCA | -0.0897
AGTGCCTG | -0.132
AGCATGCC | -0.204
GGAAGTCA | 0.0584
AAACGAGA | 0.0866
GGGGTCAA | 0.00625
AATGCTTA | -0.272
GTCGATCA | 0.0568
GGTTTCAA | 0.147
GCCCGGTA | 0.179
ACTTTCTC | 0.0338
ATTTTCCG | 0.4
CGTAAATA | 0.215
ATTCGTTA | 0.122
AATCTTGA | -0.134

Sequence | PBM E-score
CGGACTGC | 0.11
AATGCATG | 0.075
ATTGAGCG | -0.0456
AGTCTCAG | -0.104
ATCTACTA | 0.209
AAGCCATG | -0.121
ATGTTAAC | 0.0547
ACTGTTTA | 0.0919
AACATAAG | 0.0636
AACCCACC | -0.0459
CACTCAGG | -0.114
GACACCGA | 0.133
AGCAGCTA | 0.0536
CCAATCGA | -0.185
GATACTTA | 0.0721
GATCCCCA | -0.14
CGAATCTA | 0.0693
TGGCAGAA | 0.0981
CCCTGTTC | -0.144
CAACTGGG | -0.257
ATCTCGCG | 0.114
GAGCACAC | -0.203

As entered above:
PBM E-score, AACATAAG reads 0.0636
PBM E-score, ATGTTAAC reads 0.0547
PBM E-score, AACCCACC reads -0.0459
PBM E-score, GAGCACAC reads -0.203
PBM E-score, AAGCCATG reads -0.121
PBM E-score, ATTGAGCG reads -0.0456
